In this assay the target is 20S proteasome subunit α2 (HC3) (human (endogenous in MDA-MB-231)) (UniProt P25787). Nature of the assay: co-IP; agarose beads with mouse monoclonal antibody to 20S proteasome subunit α2 incubated with whole-cell extracts (~800 μg protein) of MDA-MB-231 cells treated with 10 μmol/L TPT or methanol for 2 hr; overnight at 4°C in Tris-HCl 25 mmol/L, pH 7.5; three washes; Western blot with proteasome β5 antibody.

By UniProt entry, the sequences of proteins in these tests, tags left out. Residues count along the entry.
UniProt P25787: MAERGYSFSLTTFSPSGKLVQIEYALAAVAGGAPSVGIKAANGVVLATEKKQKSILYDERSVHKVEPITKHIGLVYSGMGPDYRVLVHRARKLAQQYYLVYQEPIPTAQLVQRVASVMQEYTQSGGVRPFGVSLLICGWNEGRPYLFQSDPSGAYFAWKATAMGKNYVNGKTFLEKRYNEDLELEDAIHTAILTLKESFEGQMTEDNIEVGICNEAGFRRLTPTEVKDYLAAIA
UniProt P28074, residues 60-263: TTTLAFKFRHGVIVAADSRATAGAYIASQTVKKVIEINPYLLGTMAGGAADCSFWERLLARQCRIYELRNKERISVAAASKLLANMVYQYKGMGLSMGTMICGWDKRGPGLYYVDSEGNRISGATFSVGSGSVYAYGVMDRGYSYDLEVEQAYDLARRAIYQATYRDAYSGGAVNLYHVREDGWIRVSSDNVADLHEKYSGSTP

These are yes or no findings as the source states them, for the method shown. In cells and extracts the contact can be indirect. Some results given as binding are weak or reduced against the parent protein; the word gives no strength.

On to “20S proteasome subunit β5 (from UniProt P28074 60-263)”, for which the binding entry is listed as “binds”.

The values above are taken from PMC2661907, “The Proteasome Is a Molecular Target of Environmental Toxic Organotins” (Environmental Health Perspectives, 2008).
